# This is one part of the list. Further columns of the screen follow, without active or inactive calls. The list favours compounds with an active or inconclusive main result. Potencies come from curve fits of mixed quality, noted in brackets.
# Assay: IkB Signaling
# Conditions: ABC-DLBCL IkBa-CBG/CBR dual luciferase ratio (green luciferase fused to IkBa over red control in OCI-Ly3 lymphoma cells), 4 h; measured here: control luc red channel unless noted
# In short: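 In this assay, an IκBα–CBG68 fusion accumulates when IKK-driven degradation is blocked; native CBR normalizes for cell number. OCI-Ly3 cells were treated 4 h with compound and doxycycline, then green and red light read after Chroma-Glo addition.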
row,SMILES,AC50
1,Cc1cccc(N2CCN(C(=O)c3cccc(-n4c(C)nc5cccnc54)c3)CC2C)c1 (centres undefined),"15.8 µM [falling, partial curve]"
2,COC(=O)C1=C(C)NC2=C(C(=O)c3ccccc32)C1c1ccc(-c2ccc(C(=O)O)cc2)o1 (centres undefined),"3.16 µM [falling, full curve]"
3,Cc1cccc(N2C(=O)SC(N(CC(=O)O)c3cccc(C)c3)C2=O)c1 (centres undefined),"1.26 µM [falling, full curve]"
4,COc1ccc(NS(=O)(=O)c2cc3c4c(c2)CC(=O)N4CCC3)cc1Cl,"3.16 µM [rising, partial curve]"
5,CCn1c(CN2CCC(C)CC2)nc2cc(NC(=O)c3cccc([N+](=O)[O-])c3)ccc21,"0.0398 µM [falling, full curve, poor fit]"
6,Cc1ccc(NC(=O)N2CCc3c([nH]c4ccccc34)C2c2ccccc2F)c(Cl)c1 (centres undefined),"3.98 µM [falling, full curve, poor fit]"
7,COCCN1C(=O)c2oc3ccc(C)cc3c(=O)c2C1c1ccc(C(=O)OC)cc1 (centres undefined),"6.31 µM [rising, single point]"
8,Cc1ccc(C)c(NS(=O)(=O)c2ccc3c(c2)CCCN3C(=O)C2CCC2)c1,"25.1 µM [falling, single point]"
9,Cc1nc2c(cc(Oc3ccc(S(=O)(=O)N4CCOCC4)cn3)c3ccsc32)s1,"31.6 µM [falling, single point]"
10,Cc1nc2sccn2c(=O)c1S(=O)(=O)Nc1cccc(Cl)c1C,"39.8 µM [falling, single point]"
11,Cc1ccc(OCC(=O)Nc2ccc(C(=O)OCc3cc(=O)n4ccsc4n3)cc2)cc1C,"12.6 µM [falling, partial curve]"
12,Cc1ccc(C)n1-c1ccc(-n2cnnn2)cc1,"25.1 µM [rising, single point] [measured here: IkB-luc green channel]"
13,O=C(NCc1ccco1)c1cc(-c2cccnc2)nc2ccc(Cl)cc12,"12.6 µM [falling, partial curve]"
14,COc1cc([N+](=O)[O-])ccc1NC(=O)N1CCC2(CC1)Nc1cc(F)ccc1-n1cccc12,"20 µM [falling, partial curve, poor fit]"
15,O=c1cc(-c2ccccc2)[nH]c2nc(Cl)ccc12,"3.16 µM [rising, full curve] [measured here: IkB-luc green channel]"
16,Cc1ccc(C2C(=O)N(C3CCCCCC3)CC(=O)N2CCC2=CCCCC2)cc1 (centres undefined),"12.6 µM [falling, partial curve]"
17,Cc1ccccc1Nc1nnc(-c2ccc(C)c(S(=O)(=O)NCC3CCCO3)c2)c2ccccc12 (centres undefined),"31.6 µM [falling, single point]"
18,CC(C)(C)OC(=O)N1CCC(c2c(C(=O)N3CCN(c4ncccn4)CC3)cnn2-c2ccc(F)cc2)CC1,"25.1 µM [falling, partial curve]"
19,c1cc2c3c(cccc3c1)NC1(CCCCCC1)N2,"794 nM [rising, full curve] [measured here: IkB-luc green channel]"
20,Fc1cccc2sc(Nc3nnc(-c4ccccc4)o3)nc12,"5.01 µM [falling, full curve]"

# Quoted at random: 2 entries already listed.
row,SMILES,AC50
4,COc1ccc(NS(=O)(=O)c2cc3c4c(c2)CC(=O)N4CCC3)cc1Cl,"3.16 µM [rising, partial curve]"
12,Cc1ccc(C)n1-c1ccc(-n2cnnn2)cc1,"25.1 µM [rising, single point] [measured here: IkB-luc green channel]"

# (list continues)

row,SMILES,AC50
1,COc1ccc(Oc2ncnc3c2oc2ccccc23)cc1,"3.98 µM [rising, full curve, poor fit]"
2,CCOC(=O)c1ccc(NC(=O)C2CCCN(c3cnccn3)C2)cc1 (centres undefined),"39.8 µM [falling, single point]"
3,CCOC(=O)C1=C(CNCc2ccc(Cl)cc2)NC(=O)NC1c1ccccc1 (centres undefined),"20 µM [falling, partial curve]"
4,CC(=O)N1c2ccccc2CC1C(=O)N1CCN(c2ccccc2F)CC1 (centres undefined),"25.1 µM [falling, partial curve]"
5,COc1cc(NC(=O)Cn2cc(S(=O)(=O)N3CCC(C)CC3)c3ccccc3c2=O)cc(OC)c1OC,"31.6 µM [falling, partial curve]"
6,COc1cccc(/C=C(\C#N)c2nc3ccccc3c(=O)[nH]2)c1OC,"0.631 µM [rising, partial curve]"
7,CCOc1ccc(Nc2ncnc3onc(-c4ccc(Cl)cc4)c23)cc1,"20 µM [falling, single point]"
8,COC(=O)c1ccc(OCC2c3cc(OC)c(OC)cc3CCN2C(=O)Cc2ccc(OC)c(OC)c2)cc1 (centres undefined),"2 µM [rising, partial curve]"
9,Cc1cn2c(=O)c(S(=O)(=O)NCCc3ccc(Cl)cc3)c(C)nc2s1,"25.1 µM [falling, single point]"
10,COc1cc(C(=O)Nc2nnc(CC(C)(C)C)s2)cc(OC)c1OC,"10 µM [falling, partial curve, poor fit]"
11,CCc1ccc2occ(CC(=O)NCc3ccccc3)c2c1,"20 µM [falling, single point]"
12,O=C(Nc1scc(-c2ccc(F)cc2)c1C(=O)O)c1ccco1,"25.1 µM [falling, single point]"
13,COc1ccc(-c2nc3sc(CCNC(=O)c4ccc(C(C)(C)C)cc4)c(C)n3n2)cc1,"12.6 µM [falling, partial curve]"
14,CCOc1ccc(C(=O)Nc2ccc(Cl)c(-c3nc4cc(C)cc(C)c4o3)c2)cc1,"15.8 µM [falling, partial curve]"
15,CCOC(=O)C1CCC(CN(Cc2ccc(OC)cc2)S(=O)(=O)c2ccc(F)c(C(=O)Nc3cc(Cl)ccc3OC)c2)CC1 (centres undefined),"0.00631 µM [falling, full curve, poor fit]"
16,O=C(Cc1cccs1)N1CCN(c2nc(-c3ccc(Cl)cc3)cs2)CC1,"39.8 µM [falling, single point]"
17,COc1ccc(NC(=O)Cc2ccc(NC(=O)N3CCCCc4ccccc43)cc2)c(OC)c1,"31.6 µM [falling, single point]"
18,CC(C)c1ccc(NC(=O)c2cc(S(=O)(=O)NCCC3=CCCCC3)ccc2F)cc1,"15.8 µM [falling, partial curve]"
19,Cc1cn2c(=O)cc(COC(=O)c3ccc(NC(=O)c4ccc(C(C)(C)C)cc4)cc3)nc2s1,"0.0631 µM [rising, full curve, poor fit]"

# From PubChem BioAssay AID445 (National Center for Advancing Translational Sciences (NCATS), 2006)
